From article PMC6176987, “Correction of cognitive deficits in mouse models of Down syndrome by a pharmacological inhibitor of DYRK1A” (Disease Models & Mechanisms, 2018)

System: Ts65Dn mice brain phosphoproteins
Assay: Brain phosphoproteomic analysis, Ts65Dn mice
Type: in vivo, mouse
Conditions: 20 mg/kg daily i.p. 19 days

O=C1NC(Nc2ccccc2)=N/C1=C\c1ccc2c(c1)OCO2 [L41]
Modulated proteins trisomic, L41 vs vehicle (Cerebellum): 355
Modulated proteins trisomic, L41 vs vehicle (Cortex): 228
Modulated proteins trisomic, L41 vs vehicle (Hippocampus): 253
